Experimental data published in PubChem BioAssay AID1491 (National Center for Advancing Translational Sciences (NCATS), 2009).
Several values for one entry are separate records, joined by “and”; a condition that tells them apart may be missing. Equal values may be shown once. The inconclusive results got no clear call from the source; some entries with a clear call stand among them for comparison. Potencies beside an inconclusive call are fits to weak or partial responses and may not hold up. Activity calls are given as the source filed them. Calls follow the shape of the dose curve; as a rule, active = well fitted inhibition curve with a large enough effect in the main read-out, with a control signal flat; inconclusive = small, poorly fitted or top-dose-only effect, or a change in a side signal; inactive = flat fitted curve, though single readings scatter.
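For activity change, negative = inhibition in this document: 0% = DMSO with NPS and full inhibition = wells lacking NPS.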
Potency is read from the fitted curve at half-maximal effect.

Amino acid sequences for entries named in this document (tags omitted). A change or cut given only in a name is not applied to a line headed by its entry.
UniProt Q6W5P4: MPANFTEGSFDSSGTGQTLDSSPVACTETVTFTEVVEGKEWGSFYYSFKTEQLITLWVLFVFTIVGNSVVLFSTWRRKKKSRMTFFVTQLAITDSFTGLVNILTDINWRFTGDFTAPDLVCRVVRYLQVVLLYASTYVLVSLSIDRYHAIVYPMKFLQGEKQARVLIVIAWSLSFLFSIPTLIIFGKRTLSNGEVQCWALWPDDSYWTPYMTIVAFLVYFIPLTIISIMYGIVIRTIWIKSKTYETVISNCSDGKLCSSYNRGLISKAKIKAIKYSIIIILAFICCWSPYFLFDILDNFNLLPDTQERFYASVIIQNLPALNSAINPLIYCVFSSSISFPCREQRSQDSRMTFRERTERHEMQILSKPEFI

What follows are molecules tested against Neuropeptide S receptor (Homo sapiens) (UniProt Q6W5P4) (assay: Confirmation Concentration-Response Assay for Antagonists of the Neuropeptide S Receptor: cAMP Signal Transduction). Details: CHO-NPSR cells, cAMP TR-FRET, antagonist mode; series mostly up to 22.3 µM; activity change, negative = inhibition: at the top concentration.
Source text: NIH Chemical Genomics Center [NCGC] NIH Molecular Libraries Probe Production centers Network [MLPCN] MLPCN Grant: X01-DA026210-01 Assay Submitter (PI): Heilig, Markus Alexander NCGC Assay Overview: Neuropeptide S receptor (NPSR), previously known as GPR154, is a recently de-orphanized G protein coupled receptor. Its endogenous ligand is the 20 amino acids peptide Neuropeptide S (NPS). […] NPS and its receptor are found in various tissues. Specifically they are highly expressed in brain areas that have been implicated in modulation of arousal, stress and anxiety. Central administration of NPS in mice produces an unusual profile of activity by inducing wakefulness and arousal, while at the same time suppressing anxiety. Therefore, NPSR may represent a novel drug target for the treatment of sleep and anxiety disorders. To identify NPSR antagonists, we developed a cell-based cAMP assay. NPS can stimulate the production of cAMP in Chinese hamster ovary cells stably expressing NPS receptor. This change in intracellular cAMP level can be detected by a homogeneous LANCE cAMP assay based on the TR-FRET (time resolved fluorescence resonance energy transfer) between a europium-labeled cAMP tracer complex and a cAMP-specific antibody labeled with Alexa Fluor 647. The europium-labeled cAMP tracer complex is formed by the tight interaction between Biotin-cAMP (b-cAMP) and streptavidin labeled with Europium-W8044 chelate (Eu-SA). Light pulse at 320 nm excites the europium of the cAMP tracer and the energy emitted is transferred to the Alexa molecule bound to the cAMP antibody, generating a TR-FRET signal at 665 nm. Residual energy from the europium will produce a light at 620 nm. The native unlabeled cAMP from cell lysates competes with the europium-cAMP tracer for antibody binding and reversely reduces the emission signal of Alexa by interrupting FRET between the two labeled molecules. Both emission signals from the FRET donor (620 nm) and the acceptor (665 nm) can be detected by a plate reader in the TRF mode. Expression of result in fluorescence ratio (665 nm/620 nm) helps to normalize differences due to cell density and reagent dispensing. This assay was successfully optimized to a 1536-well plate format. Select compounds from the primary screen (AID 1461) were chosen for confirmation based on potency, efficacy, SAR, and activity across other assays in PubChem and at NCGC. Other compounds are analogs of active compounds from the primary sceen.
NCGC Assay Protocol Summary: A Chinese hamster ovary (CHO) cell line stably expressing the NPS receptor (CHO-NPSR) was obtained from Dr. Heilig lab at NIAAA and maintained in F-12 Kaighn's media (Invitrogen, Carlsbad, CA, 21127) supplemented with 10 % FBS, 100 units/ml penicillin, 100 ug/ml streptomycin and 250 ug/ml geneticin at 37C, 5% CO2 in a humidified atmosphere. Before the assay, aliquots of cells were frozen and stored at -135C. The assay was performed in 1536-well format. Data are reported for both the ratio of the two emission wavelengths, and also for the component 'donor' channel, Em2=620. […] IC50 values were determined from concentration-response data modeled with the standard Hill equation. NPS 1536-well assay protocol: (1) Fresh or frozen CHO-NPSR cells were suspended in F-12 Kaighn's media supplemented with 10 % FBS, 100 units/ml penicillin and 100 ug/ml streptomycin. Cells were plated at 4 ul/well (1200 cells) to white, tissue culture treated 1536-well plates, and then cultured at 37C, 5 % CO2 for 16 to 30 hours. (2) Add 23 nl/well of compound in DMSO solution. The final titration for each compound was between 0.6 nM and 46 uM. (3) Add 1 ul of stimulation reagent (1X HBSS buffer, 5 mM HEPES, 0.1% BSA, 500 uM RO-201724 (Sigma-Aldrich, B8279), 1.5% Alexa 647-labeled anti-cAMP antibody (from Perkin Elmer), 100 nM NPS) (4) Incubation at 37C, 5 % CO2 for 60 min. (5) Add 1 ul/well detection reagent. […]
In the case of `CCCCNS(=O)(=O)c1ccc2nc(-c3cccnc3)cc(C(=O)NC(C)CC)c2c1` (stereo not given), the “activity change, negative = inhibition” value is reported as inactive: -6.53%.
In the case of `c1ccc(-c2ccc(-c3nc(-c4cccnc4)no3)cc2)cc1`, the “activity change, negative = inhibition” value is reported as inactive: -15.5%.
`Nc1cc2nsnc2cc1Br` was tested, and the Potency was inconclusive: 15.8 µM [inhibitor, partial curve, poor fit].
With `O=C(/C=C/c1ccco1)NC(=S)Nc1ccc(O)c(-c2nc3ccccc3s2)c1` the Potency was inconclusive: 5.01 µM [antagonist, partial curve].
`O=[N+]([O-])c1ccc(N=Nc2ccc(O)cc2O)cc1` was tested, and the “activity change, negative = inhibition” value was inactive: 0.533%.
`N#CC1=C(NC=NCc2ccccc2)Oc2ccc3ccccc3c2C1c1ccccc1` (stereo not given) was tested, and the Potency was active: 1.58 µM.
`N=c1c2c(ccn1CCCCc1ccccc1)Oc1ccc3ccccc3c1C2c1ccccc1` (stereo not given) was tested, and the Potency was inconclusive: 3.55 µM [inhibitor, full curve, poor fit].
For `COc1ccc(NC(=O)/C(Cl)=C(/Cl)S(=O)Cc2ccc(C)cc2)cn1` (stereo not given), the Potency was active: 2.24 µM.
With `CCOC(=O)c1cnc2ccc(C)cc2c1Nc1ccc(N2CCOCC2)cc1` the Potency was inconclusive: 14.1 µM [inhibitor, partial curve, poor fit].
In the case of `Cc1cccnc1Nc1nc(-c2ccccn2)cs1`, the Potency is reported as inconclusive: 10 µM [antagonist, single point].
`Cc1ccc2oc(-c3cccc(NC(=S)NC(=O)/C=C/c4ccco4)c3)nc2c1` was tested, and the Potency was inconclusive: 14.1 µM [inhibitor, partial curve, poor fit] and inconclusive: 14.1 µM [inhibitor, full curve, poor fit].
With `O=C(NCCCN1CCOCC1)c1cc2c(=O)[nH]c3ccccc3c2s1` the “activity change, negative = inhibition” value was inactive: 6.75%.
`S=C(Nc1ccccc1)Nc1nccs1` was tested, and the “activity change, negative = inhibition” value was inactive: -6.4%.
In the case of `N[C@@H](Cc1cc(I)c(Oc2ccc(O)c(I)c2)c(I)c1)C(=O)O`, the “activity change, negative = inhibition” value is reported as inactive: 1.71%.
With `OC(C#Cc1ccccn1)c1cccs1` (stereo not given) the Potency was inconclusive: 8.91 µM [inhibitor, partial curve, poor fit].
In the case of `COc1ccc(-c2nnc(SCC(=O)OC3CCCCC3)o2)cc1OC`, the Potency is reported as inconclusive: 6.31 µM [inhibitor, partial curve, poor fit].
`COc1cccc(C2c3c(ncn(-c4ccccc4)c3=N)Oc3ccc4ccccc4c32)c1` (stereo not given) was tested, and the Potency was active: 2 µM and active: 1.58 µM.
With `O=[N+]([O-])c1cc2c(cc1/C=N/n1c(-c3ccccc3)n[nH]c1=S)OCO2` the “activity change, negative = inhibition” value was inactive: -1.53%.
In the case of `COc1ccccc1OCC(O)CN1CCN(CC(=O)Nc2c(C)cccc2C)CC1` (stereo not given), the Potency is reported as inconclusive: 25.1 µM [fluorescent, single point].
For `Cc1oc2c(c1C(=O)NCc1cccnc1)C(=O)c1ccccc1C2=O`, the “activity change, negative = inhibition” value was inactive: -5.45%.
For `Cc1csc(Sc2ccc([N+](=O)[O-])cc2C(=O)OCC(=O)NC2CCCC(C)C2C)n1` (stereo not given), the Potency was inconclusive: 12.6 µM [antagonist, partial curve].
`O=c1oc2ccccc2n1CCCCCn1c(=O)oc2ccccc21` was tested, and the Potency was inconclusive: 5.01 µM [inhibitor, full curve].
`COc1cccc(C2C(C#N)=C(NC(=O)NCc3ccccc3)Oc3ccc4ccccc4c32)c1` (stereo not given) was tested, and the Potency was inconclusive: 15.8 µM [inhibitor, full curve, poor fit].
In the case of `CN(C)c1ccc(/C=C/C(=O)c2cccc(Br)c2)cc1`, the Potency is reported as inconclusive: 2.51 µM [fluorescent, full curve, poor fit].
In the case of `O=C(/C=C/c1ccco1)NC(=S)Nc1cccc(-c2nc3ccccc3o2)c1`, the Potency is reported as inconclusive: 12.6 µM [inhibitor, partial curve, poor fit] and inconclusive: 20 µM [inhibitor, full curve].
For `O=C(NCc1ccccc1)Nc1ncnc2c1C(c1ccccc1)c1c(ccc3ccccc13)O2` (stereo not given), the Potency was active: 2.24 µM.
With `CC(=O)c1c(C(C)=O)c(C)n(NC(=O)c2cccnc2)c1C` the “activity change, negative = inhibition” value was inactive: 0.909%.
With `Cc1cccc(-c2nnc(SCc3cc(=O)[nH]c4ccccc34)n2C)c1` the “activity change, negative = inhibition” value was inactive: -8.22%.
In the case of `C=CCn1c(SCCN2C(=O)c3ccccc3C2=O)nc2scc(-c3ccccc3)c2c1=O`, the “activity change, negative = inhibition” value is reported as inactive: -9.23%.
`O=[N+]([O-])c1ccc(-c2nc(C(Cl)Cl)c3ccccc3n2)cc1` was tested, and the “activity change, negative = inhibition” value was inactive: -10.6%.
`Cn1nc(-c2ccc(Cl)cc2)nc2c(=O)n(C)c(=O)nc1-2` was tested, and the Potency was inconclusive: 8.91 µM [antagonist, partial curve].
`Cc1nn(-c2nc3ccccc3n2Cc2ccccc2)c2c1C(=O)CC(C)(C)C2` was tested, and the Potency was inconclusive: 15.8 µM [inhibitor, partial curve, poor fit].
In the case of `CN(C)c1nc(=Nc2cccc(Cl)c2)ss1`, the “activity change, negative = inhibition” value is reported as inactive: -8.2%.
In the case of `N=c1c2c(ccn1CCc1ccccc1)Oc1ccc3ccccc3c1C2c1ccccc1` (stereo not given), the Potency is reported as inconclusive: 5.01 µM [inhibitor, full curve, poor fit].
With `C=C1C(=O)C=C2CN(C(=O)c3ccccc3)[C@@](Cc3ccc(F)cc3)(C(=O)OC)[C@@H]12` the Potency was active: 3.98 µM.
With `COc1ccc(CCNC(=O)CC(c2ccccc2)c2cccc(C)c2O)cc1OC` (stereo not given) the “activity change, negative = inhibition” value was inactive: -8.59%.
`O=S1(=O)Nc2c(ccc3cccnc23)-c2ccccc21` was tested, and the Potency was active: 4.47 µM.
With `CN(C)c1ccc(N=Cc2ccco2)cc1` the “activity change, negative = inhibition” value was inactive: -23%.
In the case of `c1ccc(N2CCN(Cc3ccnc4ccccc34)CC2)cc1`, the Potency is reported as inconclusive: 15.8 µM [inhibitor, single point].
`COc1cccc(C(=O)/C=C/Nc2ccc(S(=O)(=O)Nc3cccc(C(C)=O)c3)cc2)c1` was tested, and the Potency was inconclusive: 14.1 µM [inhibitor, partial curve, poor fit].
